Measured values taken from US20170296650A1.
Changes are numbered by the printed parent chain. These are yes or no findings as the source states them, for the method shown. Some results given as binding are weak or reduced against the parent protein; the word gives no strength.

Chains of the proteins cited; added tags and fusions are not shown. Lines headed by an entry give the natural chain unless they say otherwise; changes in a name come on top. Residues count along the entry.
UniProt P06473: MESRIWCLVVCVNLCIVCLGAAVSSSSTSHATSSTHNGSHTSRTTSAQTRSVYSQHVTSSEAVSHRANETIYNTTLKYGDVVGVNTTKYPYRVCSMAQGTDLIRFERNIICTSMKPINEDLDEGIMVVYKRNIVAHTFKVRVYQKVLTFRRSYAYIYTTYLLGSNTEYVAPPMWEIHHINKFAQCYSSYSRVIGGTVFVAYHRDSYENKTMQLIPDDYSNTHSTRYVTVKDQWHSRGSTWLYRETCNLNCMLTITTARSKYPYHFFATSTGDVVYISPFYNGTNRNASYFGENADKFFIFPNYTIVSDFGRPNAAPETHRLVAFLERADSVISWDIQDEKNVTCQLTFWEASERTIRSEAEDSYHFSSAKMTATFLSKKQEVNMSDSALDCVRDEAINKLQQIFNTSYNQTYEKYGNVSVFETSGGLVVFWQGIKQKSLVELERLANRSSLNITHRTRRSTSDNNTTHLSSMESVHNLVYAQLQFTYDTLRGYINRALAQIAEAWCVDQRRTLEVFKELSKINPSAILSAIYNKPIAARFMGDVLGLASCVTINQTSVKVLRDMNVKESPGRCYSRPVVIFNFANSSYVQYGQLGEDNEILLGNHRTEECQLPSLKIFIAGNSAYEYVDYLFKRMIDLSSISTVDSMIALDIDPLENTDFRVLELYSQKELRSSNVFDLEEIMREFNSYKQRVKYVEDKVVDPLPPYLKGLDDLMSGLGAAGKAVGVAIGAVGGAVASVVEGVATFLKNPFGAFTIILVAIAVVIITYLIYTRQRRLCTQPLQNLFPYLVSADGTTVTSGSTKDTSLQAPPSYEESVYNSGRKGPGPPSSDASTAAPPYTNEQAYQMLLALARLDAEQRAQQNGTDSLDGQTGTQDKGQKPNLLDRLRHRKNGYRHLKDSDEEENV
hCMV glycoprotein B (gB; HEK293T transfectant): residues 32-906 of P06473
soluble gB ectodomain expressed in a mammalian cell line: residues 32-750 of P06473

B1: 10C6 (antibody, V domains shown)
VH: AVQLVESGGGLAQPGRSLRLSCKVSGFSFSNFEMNWVRQAPGKGLEWIAYIDFTGSTIYYSDSVKGRFTISRDTARNSLYLQMNKLRVEDTAVYYCVRDAGRWGTSWYYFDYWGQGTLVTVSS
VL: QSVLTQPPSVSGAPGQRVTISCTGLSSNIGAGYDIHWYQQIPGKAPKLLIYGNNNRPSGVPDRFSGSKSGTSVSLAITGLQAEDEADYYCQSYDSSLNGWVFGGGTRLTVL
B2: 5F1 (antibody, V domains shown)
VH: B1 VH with S28T, N31S, F32Y, S61A
VL: B1 VL
B3: 2B11 (antibody, V domains shown)
VH: AVRLVESGGGLAQPGRSLRLSCQVSGFTFGSYEMNWVRQAPGKGLEWIAYIDFTGSTIYYADSVKGRFTISRNTARNSLYLQMNSLRVEDTAVYYCVRDAGRWGTSWYYFDYWGQGTRVTVSP
VL: B1 VL with L25I, I50V, A82V, S95N
B4: 4H9 (antibody, V domains shown)
VH: AVQLVESGGGLVRPGGSLRLSCAASGFTFSSHEMHWVRQAPGKGLEWLSYIDFTGSIIYYADSVRGRFTISRDNTKKSLFLQMNSLRDEDTALYYCARDGGRWGTSWYYFDYWGQGVLVTVSS
VL: QSVLTQPPSVSGAPGQRVTITCTGSSSNFGAGYDGHWYQQLPGTAPKLLIYGSNRPSGVPDRFSGSKSGTSVSLAITGLQADDEADYYCQSYDSSLSAWVFGGGTKLTVL
B5: 7H3 (antibody, V domains shown)
VH: QVQLVQSGAEVKNPGASVKVSCKASGYTFTDYYIHWVRQAPGQGLEWMGWFNPNSGGTNFVQNFQGRVTMTRDTSISTAYMELSRLRSDDTAMYYCAKDSAKTASAYYGLNFFYYGMDVWGQGTTVTVSS
VL: QSVLSQPPSASGTPGQRVTISCSGSSSNIGKNYVYWYQQVPGTAPKLLMFKNNQRPSGVPDRFSGSKSGTSASLAISGLRSEDEADYYCSAWDGSLSRPLFGGGTKVTVL
B6: 6L3 (antibody, V domains shown)
VH: EVRLEESGGGLVQPGGSLRLSCAASGFTVSTTYMAWVRQAPGKGLEWVSLIHTGGIFGVGGTSYADSVKGRFTISRDTSKNTVSLQMSSLRVEDTAIYFCAREHRGTIDAFDAWGQGTVVIVSS
VL: DIHMTQSPSSLSASVGDRVTITCRASQNIRNYLNWYQHKPGKAPKLLIYTTSRLQSGVPSRFSGSGSGTDFTLTVNSLQPEDFASYYCQQSYDGWTFGQGTKVEMK
B7: 6B4 (antibody, V domains shown)
VH: QVQLVESGGGVVQPGRSLRLSCAASGFRFNEFNMHWVRQAPGKGLEWVAVISIDGRHKYNADSVEGRFTISRDNSRNTLYLQMNSLRVEDTALYYCVTDGKAVDGFSGILEFWGQGTPVTVST
VL: EIVLTQSPATLSLSPGERATLSCWASQSVGGYLAWYQQKPGQAPRLLIYDASIRATGIPARFSGSGSGTHFTLTINSLEPEDFAVYYCQQRNNWPPLTFGGGTKVEIK

How the values were obtained:
[1] = target: hCMV glycoprotein B (gB; HEK293T transfectant) (hCMV) (UniProt P06473); experiment: staining of transfected HEK293T
[2] = target: soluble gB ectodomain expressed in a mammalian cell line (hCMV) (UniProt P06473); experiment: ELISA, soluble gB ectodomain
[3] = target: T1, hCMV gM + gN (HEK293T co-transfectant) (hCMV) (UniProt P16733); experiment: staining of transfected HEK293T
T1 sequence 1: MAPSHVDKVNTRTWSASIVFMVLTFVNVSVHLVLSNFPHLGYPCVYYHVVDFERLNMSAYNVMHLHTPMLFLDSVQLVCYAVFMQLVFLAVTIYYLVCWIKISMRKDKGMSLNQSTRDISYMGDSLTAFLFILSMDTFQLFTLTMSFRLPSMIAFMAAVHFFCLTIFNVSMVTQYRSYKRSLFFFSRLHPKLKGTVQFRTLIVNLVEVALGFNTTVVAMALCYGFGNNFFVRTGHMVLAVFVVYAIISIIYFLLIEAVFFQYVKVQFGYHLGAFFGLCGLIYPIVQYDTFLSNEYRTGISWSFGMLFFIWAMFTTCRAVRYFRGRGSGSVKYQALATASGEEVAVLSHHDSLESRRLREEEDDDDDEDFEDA
T1 sequence 2: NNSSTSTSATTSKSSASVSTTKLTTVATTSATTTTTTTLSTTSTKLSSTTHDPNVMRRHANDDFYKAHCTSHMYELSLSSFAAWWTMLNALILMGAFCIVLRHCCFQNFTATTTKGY

Binder	binding [1]	further results
B1	binds	–
B2	binds	–
B3	binds	–
B4	binds	–
B5	–	binding [2]: binds
B6	–	binding [3]: binds
B7	binds	–
